From PMC10163288
The other results are listed elsewhere or left out.

B1: il10ra_site1_normal_mot_HHH_b2_03434_000000017_0001_1_19_H_._HHH_b1_00041_0001_0000100004_0000002_0 (protein)
chain: SSSDEAYEVVRRAIEEASKLLRNGNPEEAQKVVEEAIEIVEELGNFVARFSLRHLLRVIRNSSSS
B2: il10ra_site1_normal_mot_05ca327611f5605f0dd8494b449afcbf_0001_1_000000248_0001_35_51_H_._HHH_b1_05043_0001_0000300012_0000001_1 (protein)
chain: SSSSSDENQELQRLLREVAELRNNGNPEEAQRLLREVLELAEELNNLTFQFAIRHLLRDLESSSS
B3: il10ra_site1_normal_mot_HHH_b2_07440_af2_000000021_0001_1_18_H_._HHH_b1_07881_0001_0000200007_0000001_0 (protein)
chain: SSSSDEEDEEVLELSKEAFRLALRGNPEEAREVLEQALELAREIGDERLVRVIEDLLRVDSSSSS
B4: il10ra_site1_normal_mot_HHH_b1_05056_000000217_0001_1_20_H_._HHH_b2_06556_0001_0000100001_0000002_0 (protein)
chain: SSSSSSTKEEVEELLEEAEEIEDPEERAEVLLRATHIALRHSDEEALQLVWKVVKRLGSSSSSSS
B5: il10ra_site1_sap_13_mot_0eddeacbb14b769e73e254714f31e2f9_0001_af2_000000203_0001_37_51_H_._61cd5d5803be15ec78ac877bda6c130b_0001_1_0001_0000300012_0000001_0_000 … (protein)
chain: SSSSDAHEIYELIREAAELLADGNPEEARRVLEEVLELAEEANNPVLLKNIRFLLKLIEDSSSSS
B6: il10ra_site1_normal_mot_HHH_b1_07380_000000129_0001_1_20_H_._HHH_b1_02231_0001_0000200026_0000001_0_af2pred_dldesign_0_af2pred (protein)
chain: SSSSSPTSERLVELITKAAELLGEGKPEEAKKVLDEARALAEAAGDEIFLRTVDYLLRHVESSSS
B7: il10ra_site1_sap_24_mot_HHH_b2_07006_000000108_0001_1_19_H_._HHH_b2_07019_0001_0000100023_0000001_0_0001 (protein)
chain: SSSSSDEEEILRLSVEAFRAALRGDKEEAEKLLERAEELAEEAGNERALEMIRNLLKSVRSSSSS
B8: il10ra_site1_sap_30_mot_HHH_b1_02809_af2_000000277_0001_40_57_H_._3c52c70cb82747e000e16ffcb2ba7c63_0001_af2_0001_0000500026_0000003_0_0001 (protein)
chain: SSSSTEADRVYRLIEEAMELSRKDPEEAEEVLEEAKRIAEELGNWVFRIQIEFLEKDIEKLSSSS
B9: il10ra_site1_normal_mot_HHH_b1_05185_000000011_0001_22_39_H_._HHH_b2_02890_0002_0000100007_0000002_0_af2pred_0001 (protein)
chain: SSSSSVAERAVEILLKAAKEIEDPEKVKLTLRDAKAAAKAANNEELERKIEEVERELEELLSSSS
B10: il10ra_site1_normal_mot_HHH_b2_00134_af2_000000004_0001_38_52_H_._HHH_b1_02048_af2_0001_0000100003_0000001_0 (protein)
chain: SSSSDLEEKARRLAEEIAEELGLSEEQERLLEKSAERQAKQGASEEAIELALRLQARSLKSSSSS
B11: il10ra_site1_sap_13_mot_HHH_b2_00230_000000227_0001_1_19_H_._HHH_b1_08620_af2_0001_0000100004_0000001_0_0001 (protein)
chain: SSSSDEELREVFELLERAAKLDSNGNPEEAKELLREAEKLVKEINNRLLLWQIEWILELLGSSSS
B12: il10ra_site1_sap_22_mot_HHH_b2_04001_000000102_0001_19_36_H_._HHH_b2_07017_af2_0001_0000900029_0000001_0_0001 (protein)
chain: SSSSDKEENEELLEELERLIEEGDRERALELAQEAIHILIQNSDPEALHLLWELVKEIAKISSSS
B13: il10ra_site1_normal_mot_HHH_b2_00622_af2_000000153_0001_40_57_H_._HHH_b2_05560_0001_0000500016_0000001_0_af2pred_0001 (protein)
chain: SSSSSEEFEELRKELEELLKEVEELGDPRAVRALRILLRAAEELNDPQALRFALHLAKALLSSSS
B14: il10ra_site1_normal_mot_HHH_b2_04680_000000215_0001_1_16_H_._HHH_b1_06063_0001_0000100007_0000001_0_af2pred_0001 (protein)
chain: SSSSSDREERLRRVLELLRKIFESDDPEEREELLEEAERLIEEAGNELLRLQLELLRRAISSSSS
B15: il10ra_site1_normal_mot_HHH_b2_08144_af2_000000046_0001_38_52_H_._HHH_b1_07320_0001_0000500026_0000001_0_af2pred_0001 (protein)
chain: SSSSSSALERIVELLRELAELLQEGDEERIEELEEEIERLIEEANNVLAKFLLESLRRRQSSSSS
B16: il10ra_site1_sap_11_mot_HHH_b2_03450_000000073_0001_38_52_H_._HHH_b1_04135_af2_0001_0000100001_0000001_0_0001 (protein)
chain: SSSSDEARRRIYELSRRVAELDSEGDEEEAEELLEEARELAEEAGDMVFEKVIEHLRRQVSSSSS
B17: il10ra_site1_normal_mot_HHH_b2_06795_000000133_0001_42_56_H_._HHH_b2_07274_0001_0000100009_0000001_0 (protein)
chain: SSSSDEAVHEAAQLFQRFLRITDEEELQEILERIRELAEETNDERIRQSLKFLELLLRARSSSSS
B18: il10ra_site1_normal_mot_HHH_b2_03220_af2_000000223_0001_23_40_H_._HHH_b1_01997_0001_0000200011_0000002_0 (protein)
chain: SSSSSTEENEEIWELLRRALQIPDKEEAERLVEEAIEIAEEANNEVLLIQARFALRAIKLSSSSS
B19: il10ra_site1_normal_mot_HHH_b1_05052_000000015_0001_1_19_H_._HHH_b1_01305_af2_0001_0000100005_0000002_0 (protein)
chain: SSSSDEAFEIAERAIRETIQLLEEGDEEEAEKVLEEALRLLEEAGNQTAAWSVRHLLRLTSSSSS
B20: il10ra_site1_sap_13_mot_HHH_b2_01447_af2_000000258_0001_1_20_H_._HHH_b2_05150_0001_0000300020_0000001_0_0001_af2pred_0001 (protein)
chain: SSSSSEVERLLEEAEEAARRGDEERAYHLLLEAFRLARELGDPELRELVHELAVRIARLTSSSSS
B21: il10ra_site1_sap_14_mot_HHH_b2_00564_af2_000000012_0001_18_34_H_._HHH_b1_01168_0001_0000500034_0000001_0_0001 (protein)
chain: SSSSDEERLRLSLRFAKALERNGDPEAAERILKAALDIARRAGDEELQEEIEELLEKLRGSSSSS
B22: il10ra_site1_sap_10_mot_HHH_b2_03346_af2_000000019_0001_1_18_H_._HHH_b1_04552_af2_0001_0000300037_0000001_0_0001_af2pred_dldesign_0_af2pred (protein)
chain: SRREELTRLLRELGVPERTIHAMTVAIEKGEEAGLPEEEILQRLRATARLHADPRALEAIERLLE
B23: il10ra_site1_normal_mot_HHH_b2_05343_000000235_0001_19_35_H_._HHH_b1_02977_af2_0001_0000600014_0000001_0 (protein)
chain: SSSSDRERVEELLERLEEALENNDSQLAFELIREAIELATKSRDPELQELVQEMIELLLRSSSSS
B24: il10ra_site1_normal_mot_HHH_b1_03333_000000091_0001_1_17_H_._HHH_b2_02982_af2_0001_0000400019_0000001_0 (protein)
chain: SSSSSEIYRKTKEAIERAAQLFREGNEEEAEELLEEVLREVRELGNEALEWSLEHLLRLLSSSSS
B25: il10ra_site1_sap_16_mot_HHH_b1_08281_000000266_0001_42_57_H_._HHH_b2_08339_0001_0000500023_0000002_0_0001_af2pred_dldesign_0_af2pred (protein)
chain: SSSSSPLEKEIEELLREARAAKEAGKLDEARELIARAMLLAAKVNDKKWFDAVMSTYATLFSSSS
B26: il10ra_site1_sap_18_mot_HHH_b1_05860_000000142_0001_1_19_H_._HHH_b2_06678_0001_0000100008_0000002_0_0001 (protein)
chain: SSSSDYEERVEELLEQAEELAERGNPEEAAHALLEAVQLAYEARDAELLRLVWRVVKRLGSSSSS
B27: il10ra_site1_normal_mot_HHH_b1_05056_000000217_0001_1_20_H_._HHH_b2_00098_0001_0000100009_0000001_0 (protein)
chain: SSSSSEVEEEVEELLEEAKQIEDPREAAEVLLRATQIALEGQDPEALRLVWEVVKRLAERSSSSS
B28: il10ra_site1_normal_mot_HHH_b2_00441_000000147_0001_1_18_H_._HHH_b2_03122_0001_0000400042_0000001_0 (protein)
chain: SSSSDQEEQALRSAFESAERALELGDEEYFRLALRFLELLAKSLNDEEAKELVEELKERGSSSSS
B29: il10ra_site1_normal_mot_HHH_b1_06020_000000123_0001_1_18_H_._HHH_b1_06941_0001_0000400020_0000001_0_1_af2pred_0001 (protein)
chain: SSSSSDEEHEEVEELIEELKRIEDEEEFAKVFLEASRLAQRHNNEEAVELVLRAAAKWLRSSSSS
B30: il10ra_site1_sap_15_mot_HHH_b2_05813_000000266_0001_1_19_H_._ems_3hC_1310_0001_af2_0001_0000600040_0000002_0_0001 (protein)
chain: SSSSADEEFEFTREKYEEARELLQNGNPEEAEEVLEEAREYLKEAGNWAALFAVEVLLKQLSSSS
B31: il10ra_site1_sap_28_mot_HHH_b2_06795_000000133_0001_42_56_H_._HHH_b1_08376_0001_0000100010_0000001_0_0001_af2pred_0001 (protein)
chain: SSSSSSDVEHLVKAARELYERGNPEAAKAALRFAKHLAEALNDEELLEEIEKLLEEIRSSSSSSS
B32: il10ra_site1_sap_32_mot_HHH_b1_03094_000000294_0001_1_20_H_._HHH_b2_05552_0001_0000400045_0000001_0_0001 (protein)
chain: SSSSDEEEELEELLREIKELLEEGNPEEAFKLLLRALRLAYRTGDEEVLQELWELAKEVASSSSS
B33: il10ra_site1_normal_mot_HHH_b1_02492_000000051_0001_1_21_H_._HHH_b1_05494_0001_0000500037_0000001_0 (protein)
chain: SSSSSDRADRIYELLRRIIELIREGDEEEARELLEEVEELVEEANNDTLRFVLRFLKRELSSSSS
B34: il10ra_site1_sap_27_mot_HHH_b1_05870_000000031_0001_1_20_H_._HHH_b2_06019_af2_0001_0000100004_0000001_0_0001 (protein)
chain: SSSSSDIEELLREAEELAEEGDPEEAARLLLEALKLIYERQDKELLQELWEVVRRVAEISSSSSS
B35: il10ra_site1_sap_15_mot_HHH_b2_01447_af2_000000258_0001_1_20_H_._HHH_b2_01538_af2_0001_0000900031_0000001_1_0001_af2pred_0001 (protein)
chain: SSSSDARRDVRLALRLVELLVRQGDDEEAEKLVEWIEKLLRRNGDPEVEELLKEAEKLLNSSSSS
B36: il10ra_site1_sap_18_mot_HHH_b2_02497_000000141_0001_1_20_H_._HHH_b1_08018_0001_0001300072_0000001_0_0001 (protein)
chain: SSSSSEEEVERLLEEAQRAIEEGDPEEAAQLLFRAMRLAYESNNEELWEKVIRVAAEVWEASSSS
B37: il10ra_site1_sap_13_mot_HHH_b1_07641_af2_000000285_0001_1_21_H_._HHH_b1_00627_af2_0001_0000500024_0000001_0_0001_af2pred_dldesign_0_af2pred (protein)
chain: SSAEEARAALERARELAEEKKNEKLLAAVDYYLKDLDYAVSHNDEEAIALVLHAARALLEILEES

These binders were tested against il10ra, Q13651 (assay: yeast display titration).

Apparent Kd, inactive:
B1 > 1.18 µM
B2 no binding seen
B3 no binding seen
B4 no binding seen
B5 no binding seen
B6 no binding seen
B7 no binding seen
B8 no binding seen
B9 no binding seen
B10 no binding seen
B11 no binding seen
B12 no binding seen
B13 no binding seen
B14 no binding seen
B15 no binding seen
B16 > 0.894 µM
B17 no binding seen
B18 no binding seen
B19 no binding seen
B20 no binding seen
B21 no binding seen
B22 no binding seen
B23 no binding seen
B24 no binding seen
B25 no binding seen
B26 no binding seen
B27 no binding seen
B28 no binding seen
B29 no binding seen
B30 no binding seen
B31 no binding seen
B32 no binding seen
B33 no binding seen
B34 no binding seen
B35 no binding seen
B36 no binding seen
B37 no binding seen

Quoted from above (2 entries):
Apparent Kd, inactive:
B34 no binding seen
B35 no binding seen
